The other results are listed elsewhere or left out. This data set is noisy: repeats of one test often differ as much as different tests do.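 U2OS cells expressing ACE2 were combined with U2OS cells expressing full-length spike, and imaging quantified fusion as the fraction of nuclei displaying both cell types' fluorescent markers. Non-toxic compounds with a fusion z-score under -3, i.e., over three standard deviations below the plate's DMSO wells, are called inhibitory hits.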
What follows are compounds tested on U2OS ACE2 x SARS-CoV-2 spike co-culture (assay: cell-cell fusion (fraction fused) z-score vs plate DMSO control; higher = more fusion). Conditions: 30 µM; 5 h; toxicity class: non-toxic, passed QC.

SMILES	cell-cell fusion (z-score)
CC1(C)C2CC(=O)[C@]3(C)C(CC[C@@]4(C)[C@H](c5ccoc5)OC(=O)[C@H]5O[C@]543)[C@@]2(C)C(=O)C[C@H]1O (stereo partly specified)	inactive: 2.55
COC(=O)[C@H]1[C@H]2C[C@@H]3c4[nH]c5cc(OC)ccc5c4CCN3C[C@H]2C[C@@H](OC(=O)c2cc(OC)c(OC)c(OC)c2)[C@@H]1OC [Reserpine]	inactive: 0.829
O=C1CCCC(=O)C1C(=O)c1ccc(C(F)(F)F)cc1[N+](=O)[O-] [Nitisinone]	inactive: 3.14
Oc1ncnc2[nH]ncc12 [Allopurinol]	inactive: 2.85
NS(=O)(=O)c1cc2c(cc1Cl)NC(C(Cl)Cl)NS2(=O)=O (stereo unspecified) [Trichlormethiazide]	inactive: 3.39
CCCC(CCC)C(=O)OC1CC2CCC(C1)[N+]2(C)C.[Br-] (stereo unspecified) [Anisotropine methyl bromide]	inactive: -1.92
O=C(O[C@@H]1Cc2c(O)cc(O)cc2O[C@@H]1c1cc(O)c(=O)c2c(O)c(O)cc([C@H]3Oc4cc(O)cc(O)c4C[C@H]3O)c2c1)c1cc(O)c(O)c(O)c1	inactive: 0.492
O=C(O)CCCCCCCC(=O)O	inactive: 2.52
O=C(O)CCCCCCCC(=O)O [Azelaic acid]	inactive: 2.17
CC(C)[C@H]1CN[C@H](C(=O)O)[C@H]1CC(=O)O [Dihydrokainic acid]	inactive: 1.21
O=C(CCCN1CCC(O)(c2ccc(Br)cc2)CC1)c1ccc(F)cc1	inactive: 3.09
COc1ccc(O)cc1	inactive: 0.996
O=c1[nH]c2ccccc2n1C1CCN(CCCC(c2ccc(F)cc2)c2ccc(F)cc2)CC1	inactive: 2.56
Nc1nc(N)c2nc(-c3ccccc3)c(N)nc2n1	inactive: 1.86
CCCCOc1ccc(C(=O)CCN2CCCCC2)cc1.Cl	inactive: 0.0433
CC(=O)Oc1c(C)cccc1C(=O)O	inactive: 0.753
N[C@@H](Cc1cc(I)c(Oc2ccc(O)c(I)c2)c(I)c1)C(=O)O [O-(4-Hydroxy-3-iodophenyl)-3,5-diiodo-L-tyrosine]	inactive: 1.32
c1ccc2c(c1)sc1ccccc12	inactive: 0.754
CCNC(=O)/C=C/c1cccc(Br)c1	inactive: 2.57
O=C(OCC(O)CO)c1ccccc1Nc1ccnc2cc(Cl)ccc12 (stereo unspecified)	inactive: -2.88
C[C@@H]1CC2C3C[C@H](F)C4=CC(=O)C=C[C@]4(C)[C@@]3(F)[C@@H](O)C[C@]2(C)[C@@]1(O)C(=O)COC(=O)C(C)(C)C (stereo partly specified)	inactive: -0.015
Nc1nc2ccc(OC(F)(F)F)cc2s1	inactive: 1.26
C[C@@H]1CC[C@]2(C(=O)O[C@@H]3O[C@H](CO[C@@H]4O[C@H](CO)[C@@H](O[C@H]5O[C@H](C)[C@H](O)[C@@H](O)[C@H]5O)[C@H](O)[C@H]4O)[C@@H](O)[C@H](O)[C@H]3O)CC[C@]3(C)C(=CCC4[C@@]5(C)C[C@@H](O)[C@H](O)[C@@](C)(CO)C5CC[C@]43C)C2[C@H]1C (stereo partly specified)	inactive: 2.2
CC1(C)CCC(NC(=O)[C@@H](N)CCC(=O)O)CC1	inactive: 3.04

SMILES	cell-cell fusion (z-score)
CCOC(=O)c1c(C)cc(O)cc1O	inactive: 2.56
Oc1cccc(-c2nc(N3CCOCC3)c3oc4ncccc4c3n2)c1	inactive: 0.811
O=C(O)c1ccccc1Nc1ccccc1 [N-Phenylanthranilic acid]	inactive: 1.92
O=C1CCc2cc(OCCCCc3nnnn3C3CCCCC3)ccc2N1 [Cilostazol]	inactive: 1.88
C=CCCCCCCCCC(=O)O	inactive: 2.16
CCCCNc1ccc(C(=O)OCCN(C)C)cc1.Cl [Tetracaine hydrochloride]	inactive: 2.22
Cl.Nc1cc(N2CCCCC2)nc(N)[n+]1[O-]	inactive: 2.87
COc1cc2c(cc1OC)[C@@H]1C(=O)c3ccc4oc(C(C)C)cc4c3O[C@@H]1CO2	inactive: 1.78
COc1c(C)c2c(c(O)c1C/C=C(\C)CCC(=O)O)C(=O)OC2 [Mycophenolic acid]	inactive: 2.81
NC(=O)c1cnccn1 [Pyrazinecarboxamide]	inactive: 1.32
N=C(N)NCCN1CCCCCCC1	inactive: 2.31
Cc1c(OCC(F)(F)F)ccnc1CS(=O)c1nc2ccccc2[nH]1 (stereo unspecified) [Lansoprazole]	inactive: 2.59
S=C=Nc1ccc(N=C=S)cc1	inactive: 1.8
CC(=O)OCC(=O)[C@@]1(O)CCC2C3C[C@H](C)C4=CC(=O)C=CC4(C)C3[C@@H](O)CC21C (stereo partly drawn) [6alpha-METHYLPREDNISOLONE ACETATE]	inactive: 3.93
CC(C)(Oc1ccc(CCNC(=O)c2ccc(Cl)cc2)cc1)C(=O)O	inactive: 0.27
CC(C)(Oc1ccc(CCNC(=O)c2ccc(Cl)cc2)cc1)C(=O)O [Bezafibrate]	inactive: 3.7
O=C(O)c1ccccc1O	inactive: 2.29
Cn1cnc2c1c(=O)[nH]c(=O)n2C.NCCO	inactive: 2.68
CCCCCCCCCC(=O)O[C@H]1CC[C@H]2[C@@H]3CCC4=CC(=O)CC[C@@H]4[C@H]3CC[C@]12C [Nandrolone decanoate]	inactive: 2.63
C[C@]12C=CC(=O)C=C1CC[C@H]1[C@@H]3C[C@@H](O)[C@](O)(C(=O)CO)[C@@]3(C)C[C@H](O)[C@@]12F [Triamcinolone]	inactive: 2.96
CC/C(=C(\c1ccccc1)c1ccc(OCCN(C)C)cc1)c1ccccc1.O=C(O)CC(O)(CC(=O)O)C(=O)O	inactive: 1.44
CC/C(=C(\c1ccccc1)c1ccc(OCCN(C)C)cc1)c1ccccc1.O=C(O)CC(O)(CC(=O)O)C(=O)O [Tamoxifen citrate]	active: -5.13
Cn1c(=O)c2c(ncn2CC(O)CO)n(C)c1=O (stereo unspecified)	inactive: 1.41
OC[C@H]1O[C@@H](O[C@H]2[C@H](O)[C@@H](O)[C@@H](O)O[C@@H]2CO)[C@H](O)[C@@H](O)[C@@H]1O	inactive: 2.41

Laid out differently: entries from further up
SMILES,cell-cell fusion (z-score)
O=C(O)c1ccccc1Nc1ccccc1 [N-Phenylanthranilic acid],inactive: 1.92
O=C1CCc2cc(OCCCCc3nnnn3C3CCCCC3)ccc2N1 [Cilostazol],inactive: 1.88
C=CCCCCCCCCC(=O)O,inactive: 2.16
CCCCNc1ccc(C(=O)OCCN(C)C)cc1.Cl [Tetracaine hydrochloride],inactive: 2.22
Cl.Nc1cc(N2CCCCC2)nc(N)[n+]1[O-],inactive: 2.87
COc1cc2c(cc1OC)[C@@H]1C(=O)c3ccc4oc(C(C)C)cc4c3O[C@@H]1CO2,inactive: 1.78
COc1c(C)c2c(c(O)c1C/C=C(\C)CCC(=O)O)C(=O)OC2 [Mycophenolic acid],inactive: 2.81
NC(=O)c1cnccn1 [Pyrazinecarboxamide],inactive: 1.32
N=C(N)NCCN1CCCCCCC1,inactive: 2.31
Cc1c(OCC(F)(F)F)ccnc1CS(=O)c1nc2ccccc2[nH]1 (stereo unspecified) [Lansoprazole],inactive: 2.59
S=C=Nc1ccc(N=C=S)cc1,inactive: 1.8
CC(=O)OCC(=O)[C@@]1(O)CCC2C3C[C@H](C)C4=CC(=O)C=CC4(C)C3[C@@H](O)CC21C (stereo partly drawn) [6alpha-METHYLPREDNISOLONE ACETATE],inactive: 3.93
CC(C)(Oc1ccc(CCNC(=O)c2ccc(Cl)cc2)cc1)C(=O)O,inactive: 0.27
CC(C)(Oc1ccc(CCNC(=O)c2ccc(Cl)cc2)cc1)C(=O)O [Bezafibrate],inactive: 3.7
O=C(O)c1ccccc1O,inactive: 2.29
Cn1cnc2c1c(=O)[nH]c(=O)n2C.NCCO,inactive: 2.68
CCCCCCCCCC(=O)O[C@H]1CC[C@H]2[C@@H]3CCC4=CC(=O)CC[C@@H]4[C@H]3CC[C@]12C [Nandrolone decanoate],inactive: 2.63
C[C@]12C=CC(=O)C=C1CC[C@H]1[C@@H]3C[C@@H](O)[C@](O)(C(=O)CO)[C@@]3(C)C[C@H](O)[C@@]12F [Triamcinolone],inactive: 2.96
CC/C(=C(\c1ccccc1)c1ccc(OCCN(C)C)cc1)c1ccccc1.O=C(O)CC(O)(CC(=O)O)C(=O)O,inactive: 1.44
CC/C(=C(\c1ccccc1)c1ccc(OCCN(C)C)cc1)c1ccccc1.O=C(O)CC(O)(CC(=O)O)C(=O)O [Tamoxifen citrate],active: -5.13
Cn1c(=O)c2c(ncn2CC(O)CO)n(C)c1=O (stereo unspecified),inactive: 1.41
OC[C@H]1O[C@@H](O[C@H]2[C@H](O)[C@@H](O)[C@@H](O)O[C@@H]2CO)[C@H](O)[C@@H](O)[C@@H]1O,inactive: 2.41

Rewritten field by field: part of the list above
Oc1cccc(-c2nc(N3CCOCC3)c3oc4ncccc4c3n2)c1
  cell-cell fusion (z-score): inactive: 0.811
O=C(O)c1ccccc1Nc1ccccc1 [N-Phenylanthranilic acid]
  cell-cell fusion (z-score): inactive: 1.92

Next records follow.

SMILES	cell-cell fusion (z-score)
CC1CC[C@@]2(OC1)O[C@H]1CC3C4CC[C@@H]5C[C@@H](O)CC[C@]5(C)C4CC[C@]3(C)[C@H]1[C@@H]2C (stereo partly specified)	inactive: 2.94
O=C(/C=C/c1ccc(O)c(O)c1)c1ccc(O)cc1O [Butein]	inactive: -1.35
C[C@H]1c2cccc(O)c2C(=O)C2=C(O)[C@]3(O)C(=O)C(C(N)=O)=C(O)[C@@H](N(C)C)[C@@H]3[C@@H](O)[C@@H]21.Cl	inactive: 1.25
CC(=O)O[C@@H]1CC[C@]2(C)C3CC[C@]4(C)C(=O)CCC4C3CC[C@H]2C1 (stereo partly specified)	inactive: 2.07
Cn1c(=O)c2c(ncn2CC(O)CO)n(C)c1=O (stereo unspecified) [Diprophylline]	inactive: 3.47
CC1=C(/C=C/C(C)=C/C=C/C(C)=C/CO)C(C)(C)CCC1	inactive: 2.99
COc1cc(C(=O)NS(=O)(=O)c2ccccc2C)ccc1Cc1cn(C)c2ccc(NC(=O)OC3CCCC3)cc12 [Zafirlukast]	inactive: 4.72
CCCCS(=O)(=O)N[C@@H](Cc1ccc(OCCCCC2CCNCC2)cc1)C(=O)O.Cl.O [Tirofiban hydrochloride monohydrate]	inactive: 1.11
N#C/C(=C\c1cccc(O)c1)C(=O)O [alpha-CYANO-3-HYDROXYCINNAMIC ACID]	inactive: 2.19
Br.C=CCN1CCc2c(cc(O)c(O)c2Br)[C@@H](c2ccccc2)C1 [R(+)-6-Bromo-APB hydrobromide]	inactive: -0.11
CC(C)=CCCC(C)[C@@H]1CC[C@]2(C)C3=C(CC[C@@]12C)C1(C)CC[C@H](O)C(C)(C)C1CC3 (stereo partly specified)	inactive: 1.77
COc1cc2c(NC3CCN(C)CC3)nc(N3CCCN(C)CC3)nc2cc1OCCCN(C)C	inactive: 3.26
CC(CN1c2ccccc2Sc2ccccc21)N(C)C.Cl (stereo unspecified) [Promethazine hydrochloride]	inactive: 0.0397
Cl.OC(CCN1CCCC1)(c1ccccc1)C1CCCCC1 (stereo unspecified) [Procyclidine hydrochloride]	inactive: 1.74
CN1CCN(c2cc3c(cc2F)c(=O)c(C(=O)O)cn3-c2ccc(F)cc2)CC1.Cl	inactive: 3.06
COc1ccc2[n-]c([S@@](=O)Cc3ncc(C)c(OC)c3C)nc2c1.COc1ccc2[n-]c([S@@](=O)Cc3ncc(C)c(OC)c3C)nc2c1.[Mg+2] [Esomeprazole Magnesium]	inactive: 2.53
CSc1ccc2c(c1)N(CCC1CCCCN1C)c1ccccc1S2.Cl (stereo unspecified)	inactive: 0.254
CC(C)=CCC/C(C)=C/COc1ccc2ccc(=O)oc2c1 [Auraptene]	inactive: 1.8
Cl.Fc1ccc([C@@H]2CCNC[C@H]2COc2ccc3c(c2)OCO3)cc1 [Paroxetine hydrochloride]	inactive: 1.82
CNCCC(Oc1ccc(C(F)(F)F)cc1)c1ccccc1.Cl (stereo unspecified) [Fluoxetine hydrochloride]	inactive: -1.43
Nc1nc(OCc2ccccc2)c2nc[nH]c2n1 [O6-benzylguanine]	inactive: 0.00635
OC[C@@H](O)[C@@H](O)[C@H](O)[C@@H](O)CO [D-Sorbitol]	inactive: 2.25
Cc1cccc(C)c1NC1=NCCCS1.Cl [Xylazine hydrochloride]	inactive: 2.16

From the supplement of paper PMC8104966
